This passage reports binding results from PMC4937415.

Amino acid sequences for entries named in this document (tags omitted).
UniProt P27695: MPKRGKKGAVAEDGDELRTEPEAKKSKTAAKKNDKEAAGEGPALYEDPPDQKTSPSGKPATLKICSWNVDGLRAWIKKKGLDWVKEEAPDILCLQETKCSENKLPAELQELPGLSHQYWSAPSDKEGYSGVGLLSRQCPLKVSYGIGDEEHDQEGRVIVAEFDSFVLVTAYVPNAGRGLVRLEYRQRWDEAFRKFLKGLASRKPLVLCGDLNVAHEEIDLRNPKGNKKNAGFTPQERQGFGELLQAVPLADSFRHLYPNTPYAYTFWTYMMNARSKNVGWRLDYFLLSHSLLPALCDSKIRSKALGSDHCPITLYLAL

The test concerns the target FH-APE1 (N-terminal FLAG-HA tagged APE1) (human) (UniProt P27695). Put plainly: co-IP; anti-FLAG (M2) beads, total extracts of HeLaS cells expressing FH-APE1 (untreated or 25 μM H2O2 for 1 h) or empty vector; 4 h at 4 °C; blot with anti-PRDX1.

No constants are given. Whether binding was seen depends on the method and setting. Binding seen in cells or lysates may run through a third protein. Some results given as binding are weak or reduced against the parent protein; the word gives no strength.

B1: Peroxiredoxin 1 (PRDX1) (protein, UniProt Q06830 1-199)
chain: MSSGNAKIGHPAPNFKATAVMPDGQFKDISLSDYKGKYVVFFFYPLDFTFVCPTEIIAFSDRAEEFKKLNCQVIGASVDSHFCHLAWVNTPKKQGGLGPMNIPLVSDPKRTIAQDYGVLKADEGISFRGLFIIDDKGILRQITVNDLPVGRSVDETLRLVQAFQFTDKHGEVCPAGWKPGSDTIKPDVQKSKEYFSKQK
For the molecule B1, the binding result is “binds”.
